For 33 compounds, survivor count and T/C results are on record in PubChem BioAssay AID248 (DTP/NCI, 2004).

Molecules are shown by their SMILES. The list shows only some results of the screen, not a fair sample: it is rich in T/C values a quarter to a half above the control, in often repeated tests (any T/C) and in doses without a T/C. Further doses and runs are listed elsewhere. T/C is the treated group as % of the vehicle group. Some entries give survivors of the animals treated and no T/C: the source files T/C as zero there, which appears to mark a toxic dose or a test without result, not a measured value. Some doses without a T/C left all or most animals alive at the check, yet need not have been tolerated: the source hardly ever lists a survival T/C far under the control, and the zero likely stands for such cases as well. Counts of survivors are from the toxicity check (mostly the fifth day) where no day follows; animals may have died later. Schedules are NCI's codes, taken here to give the interval after Q, in days (D) or hours (H), and the number of doses after X. Some schedule codes hold Z or #, which are not explained here. For survival time, this PubChem deposit counts one and a half times the control or more as active, and values a quarter to a half above the control carry no call in these data; other NCI protocols may use other cut-offs. Counts like (3×) stand for listed records that agree. Some T/C values are followed by the survivors on the day toxicity was checked, most often the fifth; where none is given, no animal had died by that day.

The test system of this assay is L1210 leukemia ip in BDF1 mice, survival T/C. The experiment in a line: NCI In Vivo Anticancer Drug Screen. Data for tumor model L1210 Leukemia (intraperitoneal) in B6D2F1 (BDF1) mice. As to conditions: T/C endpoint: mean survival time, higher T/C = longer survival.
[1] abbreviates: dose: 100.0 mg/kg/injection, schedule: Q01DX001 (ip), vehicle: Klucel (hydroxypropylcellulose) (HPC).
[2] abbreviates: dose: 400.0 mg/kg/injection, schedule: Q01DX009 (ip), vehicle: saline.
Where [3] appears, read: dose: 200.0 mg/kg/injection, schedule: Q04DX003 (ip), vehicle: saline with Tween-80.
Setting [4] is: dose: 400.0 mg/kg/injection, schedule: Q04DX003 (ip), vehicle: saline with Tween-80.
Where [5] appears, read: dose: 200.0 mg/kg/injection, schedule: Q01DX009 (ip), vehicle: saline with Tween-80.
[6] abbreviates: dose: 150.0 mg/kg/injection, schedule: Q01DX001 (ip), vehicle: saline.
[7] abbreviates: dose: 400.0 mg/kg/injection, schedule: Q01DX001 (ip), vehicle: saline.
Setting [8] is: dose: 200.0 mg/kg/injection, schedule: Q04DX003 (ip), vehicle: Klucel (hydroxypropylcellulose) (HPC).
Setting [9] is: dose: 400.0 mg/kg/injection, schedule: Q01DX009 (ip), vehicle: saline with Tween-80.
Where [10] appears, read: dose: 100.0 mg/kg/injection, schedule: Q04DX003 (ip), vehicle: saline with Tween-80.

For `COc1ccc(/C=N/NC(=O)c2ccccc2NC(=O)c2ccccc2Cl)cc1`, the survivor count (dose: 200.0 mg/kg/injection, schedule: Q01DX009 (ip), vehicle: Klucel (hydroxypropylcellulose) (HPC)) is on record as 6 of 6.
On to `CCCCn1c(C)nc2c(N)cc(C(F)(F)F)cc21`, for which, under setting [1], the T/C was 130 % of control.
For the compound `O=NN(CCCl)C(=O)N[C@@H]1CCCC[C@H]1O`, the T/C (dose: 3.6 mg/kg/injection, schedule: Q01DX001 (ip), vehicle: saline with Tween-80) is 141 % of control. For the same compound, the survivor count reads like this: (dose: 40.0 mg/kg/injection, schedule: Q01DX001 (ip), vehicle: saline with Tween-80) 9 of 10; (dose: 45.0 mg/kg/injection, schedule: Q01DX001 (ip), vehicle: saline with Tween-80) 9 of 10; (dose: 60.0 mg/kg/injection, schedule: Q01DX001 (ip), vehicle: saline with Tween-80) 7 of 10; (dose: 90.0 mg/kg/injection, schedule: Q01DX001 (ip), vehicle: saline with Tween-80) 8 of 10; (dose: 133.0 mg/kg/injection, schedule: Q01DX001 (ip), vehicle: saline with Tween-80) 6 of 10; (dose: 200.0 mg/kg/injection, schedule: Q01DX001 (ip), vehicle: saline with Tween-80) 0 of 10.
For `Cc1ccc(-c2ccc(-c3ccc(C)cc3)o2)cc1`, the survivor count by setting is: under setting [1], 6 of 6; (dose: 400.0 mg/kg/injection, schedule: Q01DX001 (ip), vehicle: Klucel (hydroxypropylcellulose) (HPC)) 6 of 6.
Regarding `SC1(S)CC(c2ccc(Cl)cc2)NC(c2ccc(Cl)cc2)C1` (stereo not given), the survivor count was 2 of 6 under setting [2] and 3 of 6 (dose: 400.0 mg/kg/injection, schedule: Q04DX003 (ip), vehicle: saline).
In the case of `Cc1nnc2c3ccccc3c(-c3ccccc3)nn12`, the survivor count (dose: 400.0 mg/kg/injection, schedule: Q01DX001 (ip), vehicle: carboxymethylcellulose (CMC)) is listed as 6 of 6.
On to `CCOC(=O)Cc1cc(OC)c(OC)c(OC)c1`, for which the survivor count (dose: 400.0 mg/kg/injection, schedule: Q04DX003 (ip), vehicle: acetone) is recorded as 0 of 6.
For the compound `CCCC(C)c1ccccc1O` (stereo not given), the survivor count is recorded as 4 of 6 under setting [3] and 3 of 6 under setting [4].
Consider `C=CCC/C(=C/C(=O)OCC)OCC=C`, for which the survivor count under setting [5] is on record as 3 of 3.
In the case of `CC(C)Cc1nc(/N=N/N(C)C)c(C(N)=O)[nH]1`, the T/C runs as follows: (dose: 33.0 mg/kg/injection, schedule: Q01DX009 (ip), vehicle: other) 129 % of control; (dose: 50.0 mg/kg/injection, schedule: Q01DX009 (ip), vehicle: other) 132 % of control; (dose: 75.0 mg/kg/injection, schedule: Q01DX007 (ip), vehicle: other) 138 % of control; (dose: 112.0 mg/kg/injection, schedule: Q01DX007 (ip), vehicle: other) 137 % of control [5 of 6 alive].
With `CCOC(C(=O)OC1CCN(C)CC1)(c1ccccc1)c1ccccc1`, the survivor count under setting [3] is reported as 1 of 6 and the survivor count under setting [4] was 0 of 6.
With `CCCCCCCCSCC(=O)O`, under setting [4], the survivor count is given as 1 of 6.
With `Cc1noc(C)c1CON`, under setting [6], the survivor count is 6 of 6.
For `CCOC(=O)C1(C(=O)OCC)CCC1`, under setting [7], the survivor count was 6 of 6.
Consider `CC(C)(O)CNC1CCCCC1`, for which the survivor count is on record as 2 of 6 under setting [6] and 0 of 6 (dose: 300.0 mg/kg/injection, schedule: Q01DX001 (ip), vehicle: saline).
With `O=c1[nH]c2c(cnn2-c2ccccc2)c(=O)n1O`, the survivor count is, setting by setting: (dose: 200.0 mg/kg/injection, schedule: Q01DX001 (ip), vehicle: saline) 2 of 4; under setting [7], 0 of 4.
Turning to `CC(=O)C(C)=P(c1ccccc1)(c1ccccc1)c1ccccc1`, the survivor count is 0 of 6 (dose: 200.0 mg/kg/injection, schedule: Q01DX009 (ip), vehicle: saline) and 0 of 6 under setting [2].
With `O=C1NC(=O)C(c2ccc(Cl)cc2)(c2ccc(Cl)cc2)N1`, the T/C (dose: 100.0 mg/kg/injection, schedule: Q01DX009 (ip), vehicle: Klucel (hydroxypropylcellulose) (HPC)) was 126 % of control [5 of 6 alive].
For the compound `O=C(Nc1cccc(C2=NCCN2)c1)c1cccc(C(=O)Nc2cccc(C3=NCCN3)c2)c1`, the survivor count runs as follows: (dose: 125.0 mg/kg/injection, schedule: Q01DX Z (ip), vehicle: carboxymethylcellulose (CMC)) 2 of 6; (dose: 250.0 mg/kg/injection, schedule: Q01DX Z (ip), vehicle: carboxymethylcellulose (CMC)) 0 of 6.
`S=C(S)N1CCOCC1`: under setting [7], the survivor count is given as 3 of 6.
Turning to `CC(NC(=O)NCCCl)C(O)c1ccccc1` (stereo not given), the survivor count runs as follows: under setting [8], 6 of 6; (dose: 400.0 mg/kg/injection, schedule: Q04DX003 (ip), vehicle: Klucel (hydroxypropylcellulose) (HPC)) 0 of 6.
As for `Nc1cc2c3c(cccc3c1Br)C(=O)N(Cc1ccccc1)C2=O`, the survivor count is 6 of 6 (dose: 100.0 mg/kg/injection, schedule: Q04DX003 (ip), vehicle: Klucel (hydroxypropylcellulose) (HPC)) and 6 of 6 under setting [8].
For the compound `CCCCC(C)NC1=C(Cl)C(=O)c2ccccc2C1=O` (stereo not given), the survivor count is recorded as 5 of 6 (dose: 100.0 mg/kg/injection, schedule: Q01DX009 (ip), vehicle: saline with Tween-80); 5 of 6 under setting [5]; 5 of 6 under setting [9].
Turning to `O=[As]O`, the survivor count was 1 of 6 (dose: 20.0 mg/kg/injection, schedule: Q01DX015 (ip), vehicle: carboxymethylcellulose (CMC)) and 0 of 6 (dose: 40.0 mg/kg/injection, schedule: Q01DX015 (ip), vehicle: carboxymethylcellulose (CMC)).
For `CON(C)CC(Cl)c1ccccc1` (stereo not given), the survivor count was 5 of 6 under setting [10], 1 of 6 under setting [3] and 0 of 6 under setting [4].
In the case of `S=c1[nH]c2nc(Cl)c(Cl)nc2[nH]1`, the survivor count is 0 of 6 under setting [9] and 0 of 6 under setting [4].
With `Nc1ccc(OCCCOc2ccccc2)cc1`, under setting [9], the survivor count is on record as 1 of 6.
As to `NC(CCl)CCl`, the survivor count (dose: 50.0 mg/kg/injection, schedule: Q01DX Z (ip), vehicle: other) is 0 of 7.
Consider `CC(=O)N/N=C/c1ccc([N+](=O)[O-])s1`, for which the survivor count under setting [3] is on record as 1 of 6 and the survivor count under setting [4] is given as 5 of 6.
Consider `O=S(N=C(C(F)(F)F)C(F)(F)F)C(F)(F)F` (stereo not given), for which the survivor count (dose: 200.0 mg/kg/injection, schedule: Q01DX001 (ip), vehicle: Klucel (hydroxypropylcellulose) (HPC)) is listed as 3 of 6.
`C=CCOC(=O)CCCCC(=O)OCC=C`: the survivor count under setting [5] is recorded as 0 of 6 and the survivor count under setting [9] is 0 of 6.
For `Cc1ccc(S(=O)(=O)CCN2CCN(C)CC2)cc1`, the survivor count under setting [7] is 0 of 4.
For the compound `CS(=O)(=O)OCCN(CCOS(C)(=O)=O)c1ccc(C=Nc2ccc(C(=O)O)c(O)c2)cc1`, the T/C (dose: 8.0 mg/kg/injection, schedule: Q01DX009 (ip), vehicle: saline with Tween-80) is 138 % of control (2×); the T/C (dose: 12.0 mg/kg/injection, schedule: Q01DX009 (ip), vehicle: saline with Tween-80) was 149 % of control; the T/C (dose: 12.5 mg/kg/injection, schedule: Q01DX009 (ip), vehicle: saline with Tween-80) was 131 % of control; the T/C (dose: 12.5 mg/kg/injection, schedule: Q04DX003 (ip), vehicle: saline with Tween-80) was 129 % of control; the T/C (dose: 18.0 mg/kg/injection, schedule: Q01DX009 (ip), vehicle: saline with Tween-80) was 144 % of control; the T/C (dose: 25.0 mg/kg/injection, schedule: Q01DX009 (ip), vehicle: saline with Tween-80) is 147 % of control. Also, where the note is “dose: 25.0 mg/kg/injection, schedule: Q04DX003 (ip), vehicle: saline with Tween-80”, the T/C was 131 % of control. Also, the survivor count by setting is: (dose: 50.0 mg/kg/injection, schedule: Q01DX009 (ip), vehicle: saline with Tween-80) 5 of 6; under setting [10], 5 of 6; under setting [3], 5 of 6; under setting [4], 0 of 6.
